Measured values published in the supplement of paper PMC10849652.
The other results are listed elsewhere or left out.

Amino acid sequences for entries named in this document (tags omitted). A change or cut given only in a name is not applied to a line headed by its entry.
UniProt Q9NZ08: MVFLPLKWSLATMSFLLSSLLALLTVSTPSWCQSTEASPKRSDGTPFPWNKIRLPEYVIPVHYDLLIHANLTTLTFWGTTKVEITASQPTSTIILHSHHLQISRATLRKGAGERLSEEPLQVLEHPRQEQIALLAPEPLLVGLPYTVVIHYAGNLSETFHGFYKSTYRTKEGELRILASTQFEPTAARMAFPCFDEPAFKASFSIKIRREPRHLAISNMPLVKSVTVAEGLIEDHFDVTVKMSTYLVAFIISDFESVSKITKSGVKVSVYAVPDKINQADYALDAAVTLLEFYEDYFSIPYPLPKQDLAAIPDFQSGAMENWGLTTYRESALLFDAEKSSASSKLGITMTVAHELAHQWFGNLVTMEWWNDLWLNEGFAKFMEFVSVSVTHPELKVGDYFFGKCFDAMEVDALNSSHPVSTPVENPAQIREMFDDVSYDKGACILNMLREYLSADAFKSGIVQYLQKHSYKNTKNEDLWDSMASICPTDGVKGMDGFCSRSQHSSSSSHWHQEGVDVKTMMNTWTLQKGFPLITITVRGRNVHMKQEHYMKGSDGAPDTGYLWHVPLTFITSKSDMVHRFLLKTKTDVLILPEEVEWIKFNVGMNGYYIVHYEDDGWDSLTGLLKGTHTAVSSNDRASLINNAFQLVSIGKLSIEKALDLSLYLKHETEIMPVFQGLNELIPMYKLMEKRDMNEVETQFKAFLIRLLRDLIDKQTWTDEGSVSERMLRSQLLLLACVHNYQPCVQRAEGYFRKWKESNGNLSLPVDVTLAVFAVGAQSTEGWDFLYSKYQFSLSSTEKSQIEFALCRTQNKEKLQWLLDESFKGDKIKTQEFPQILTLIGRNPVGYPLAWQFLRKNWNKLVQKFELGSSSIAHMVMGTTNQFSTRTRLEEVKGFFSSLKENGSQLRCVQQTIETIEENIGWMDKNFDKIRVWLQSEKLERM
UniProt Q9GZU8: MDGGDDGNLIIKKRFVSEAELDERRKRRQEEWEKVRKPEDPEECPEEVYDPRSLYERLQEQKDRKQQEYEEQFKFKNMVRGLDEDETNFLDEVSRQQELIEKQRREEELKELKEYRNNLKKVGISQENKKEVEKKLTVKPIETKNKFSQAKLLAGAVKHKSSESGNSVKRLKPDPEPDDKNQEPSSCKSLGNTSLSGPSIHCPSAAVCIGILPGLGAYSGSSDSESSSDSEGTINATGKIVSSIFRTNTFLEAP
UniProt Q7Z2K6: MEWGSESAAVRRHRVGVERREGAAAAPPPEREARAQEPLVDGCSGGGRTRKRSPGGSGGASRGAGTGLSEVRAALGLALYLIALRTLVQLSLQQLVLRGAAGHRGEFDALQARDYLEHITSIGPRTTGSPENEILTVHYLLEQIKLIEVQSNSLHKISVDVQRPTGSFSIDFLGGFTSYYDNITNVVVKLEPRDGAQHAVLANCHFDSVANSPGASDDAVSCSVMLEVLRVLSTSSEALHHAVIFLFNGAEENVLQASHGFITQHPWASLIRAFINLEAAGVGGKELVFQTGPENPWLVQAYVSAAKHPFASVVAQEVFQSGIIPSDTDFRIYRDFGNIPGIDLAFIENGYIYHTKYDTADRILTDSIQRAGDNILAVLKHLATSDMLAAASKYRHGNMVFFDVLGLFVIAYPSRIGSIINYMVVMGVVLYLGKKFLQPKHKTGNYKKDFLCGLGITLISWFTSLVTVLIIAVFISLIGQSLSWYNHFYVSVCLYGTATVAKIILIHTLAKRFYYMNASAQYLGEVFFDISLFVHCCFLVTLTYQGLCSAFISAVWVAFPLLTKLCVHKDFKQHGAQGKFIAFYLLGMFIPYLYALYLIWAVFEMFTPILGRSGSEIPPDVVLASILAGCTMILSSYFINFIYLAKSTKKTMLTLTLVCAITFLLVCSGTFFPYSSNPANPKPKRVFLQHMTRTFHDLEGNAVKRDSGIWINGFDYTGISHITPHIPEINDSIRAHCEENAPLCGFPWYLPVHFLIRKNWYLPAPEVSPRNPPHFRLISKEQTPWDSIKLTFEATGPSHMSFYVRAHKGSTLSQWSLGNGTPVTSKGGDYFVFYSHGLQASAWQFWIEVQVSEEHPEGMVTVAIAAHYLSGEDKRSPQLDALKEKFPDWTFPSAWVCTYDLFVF
UniProt P16422: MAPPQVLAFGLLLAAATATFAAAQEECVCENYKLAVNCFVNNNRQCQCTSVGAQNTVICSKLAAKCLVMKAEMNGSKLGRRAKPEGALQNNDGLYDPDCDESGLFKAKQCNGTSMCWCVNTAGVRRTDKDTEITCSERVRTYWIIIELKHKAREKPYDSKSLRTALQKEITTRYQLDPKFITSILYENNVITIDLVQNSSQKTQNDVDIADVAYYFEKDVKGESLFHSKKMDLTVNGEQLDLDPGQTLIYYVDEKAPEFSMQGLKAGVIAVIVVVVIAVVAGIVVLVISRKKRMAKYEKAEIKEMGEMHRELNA
UniProt O95208: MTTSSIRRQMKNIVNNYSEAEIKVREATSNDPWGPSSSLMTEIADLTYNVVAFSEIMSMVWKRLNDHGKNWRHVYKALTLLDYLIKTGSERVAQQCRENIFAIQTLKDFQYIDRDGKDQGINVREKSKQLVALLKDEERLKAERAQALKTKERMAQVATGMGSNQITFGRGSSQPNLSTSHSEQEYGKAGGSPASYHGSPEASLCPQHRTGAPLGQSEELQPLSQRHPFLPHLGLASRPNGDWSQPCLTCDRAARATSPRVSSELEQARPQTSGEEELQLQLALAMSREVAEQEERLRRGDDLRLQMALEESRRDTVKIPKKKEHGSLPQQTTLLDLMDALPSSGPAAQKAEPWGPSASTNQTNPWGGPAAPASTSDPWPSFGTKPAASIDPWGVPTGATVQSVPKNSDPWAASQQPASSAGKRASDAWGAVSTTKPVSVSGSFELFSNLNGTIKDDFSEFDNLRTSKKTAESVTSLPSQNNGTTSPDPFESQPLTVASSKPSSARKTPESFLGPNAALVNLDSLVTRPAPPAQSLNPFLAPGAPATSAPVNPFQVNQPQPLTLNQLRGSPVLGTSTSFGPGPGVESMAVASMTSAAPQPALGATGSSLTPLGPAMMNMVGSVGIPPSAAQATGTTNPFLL
UniProt O43491, whole entry, looked up: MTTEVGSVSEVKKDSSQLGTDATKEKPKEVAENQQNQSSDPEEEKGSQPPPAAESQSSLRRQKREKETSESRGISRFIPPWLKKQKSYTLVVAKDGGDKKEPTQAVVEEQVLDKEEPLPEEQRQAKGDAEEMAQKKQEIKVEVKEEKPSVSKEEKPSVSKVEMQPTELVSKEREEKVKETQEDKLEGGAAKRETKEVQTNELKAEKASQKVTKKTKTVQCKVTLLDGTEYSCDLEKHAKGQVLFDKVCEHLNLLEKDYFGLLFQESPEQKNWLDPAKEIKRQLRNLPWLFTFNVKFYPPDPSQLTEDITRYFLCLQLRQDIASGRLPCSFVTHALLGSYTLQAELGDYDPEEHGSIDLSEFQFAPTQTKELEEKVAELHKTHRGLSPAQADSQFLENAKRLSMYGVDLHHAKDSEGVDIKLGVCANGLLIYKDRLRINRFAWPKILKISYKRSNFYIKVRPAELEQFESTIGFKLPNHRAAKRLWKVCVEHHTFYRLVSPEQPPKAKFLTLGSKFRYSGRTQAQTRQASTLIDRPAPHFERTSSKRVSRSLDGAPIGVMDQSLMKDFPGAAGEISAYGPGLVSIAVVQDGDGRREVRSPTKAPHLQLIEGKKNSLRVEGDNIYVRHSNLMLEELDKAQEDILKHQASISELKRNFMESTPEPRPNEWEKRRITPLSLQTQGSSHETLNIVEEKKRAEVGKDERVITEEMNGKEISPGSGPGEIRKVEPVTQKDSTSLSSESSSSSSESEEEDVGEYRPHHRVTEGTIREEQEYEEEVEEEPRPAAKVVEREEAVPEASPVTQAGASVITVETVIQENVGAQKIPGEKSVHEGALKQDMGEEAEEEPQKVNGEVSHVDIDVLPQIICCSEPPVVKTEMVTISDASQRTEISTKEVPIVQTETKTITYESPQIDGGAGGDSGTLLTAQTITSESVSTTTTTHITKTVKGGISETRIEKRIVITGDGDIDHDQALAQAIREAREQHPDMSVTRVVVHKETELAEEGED
UniProt Q96HE7: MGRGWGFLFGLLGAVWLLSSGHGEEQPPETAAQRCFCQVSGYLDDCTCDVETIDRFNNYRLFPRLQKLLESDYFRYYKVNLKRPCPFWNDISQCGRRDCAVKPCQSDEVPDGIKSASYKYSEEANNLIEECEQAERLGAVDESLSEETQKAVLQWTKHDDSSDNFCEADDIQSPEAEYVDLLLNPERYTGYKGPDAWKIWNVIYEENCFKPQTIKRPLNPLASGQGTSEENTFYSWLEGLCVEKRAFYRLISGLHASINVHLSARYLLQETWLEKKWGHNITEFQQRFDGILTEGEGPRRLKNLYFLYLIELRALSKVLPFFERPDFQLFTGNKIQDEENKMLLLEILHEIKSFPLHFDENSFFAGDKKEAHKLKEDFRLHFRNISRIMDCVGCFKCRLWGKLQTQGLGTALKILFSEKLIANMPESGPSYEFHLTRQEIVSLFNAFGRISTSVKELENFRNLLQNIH
UniProt Q96PL5: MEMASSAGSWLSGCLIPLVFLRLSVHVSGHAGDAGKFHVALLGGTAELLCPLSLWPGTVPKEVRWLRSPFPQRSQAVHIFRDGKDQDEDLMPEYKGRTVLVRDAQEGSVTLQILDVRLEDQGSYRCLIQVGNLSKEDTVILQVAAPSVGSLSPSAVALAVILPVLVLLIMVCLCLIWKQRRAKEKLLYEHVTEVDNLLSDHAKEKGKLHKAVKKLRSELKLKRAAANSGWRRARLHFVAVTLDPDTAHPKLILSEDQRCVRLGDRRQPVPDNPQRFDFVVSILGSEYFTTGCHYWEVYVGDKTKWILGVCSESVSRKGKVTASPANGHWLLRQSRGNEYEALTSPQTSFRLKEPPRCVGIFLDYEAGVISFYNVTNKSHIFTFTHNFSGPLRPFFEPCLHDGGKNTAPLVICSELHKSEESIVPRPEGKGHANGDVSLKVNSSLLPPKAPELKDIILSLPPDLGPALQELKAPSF
UniProt Q96A26: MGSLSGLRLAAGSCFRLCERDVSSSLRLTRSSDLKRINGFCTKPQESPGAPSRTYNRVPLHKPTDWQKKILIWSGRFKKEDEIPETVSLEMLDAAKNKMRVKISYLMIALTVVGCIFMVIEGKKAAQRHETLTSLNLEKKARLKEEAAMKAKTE
UniProt Q96GK7: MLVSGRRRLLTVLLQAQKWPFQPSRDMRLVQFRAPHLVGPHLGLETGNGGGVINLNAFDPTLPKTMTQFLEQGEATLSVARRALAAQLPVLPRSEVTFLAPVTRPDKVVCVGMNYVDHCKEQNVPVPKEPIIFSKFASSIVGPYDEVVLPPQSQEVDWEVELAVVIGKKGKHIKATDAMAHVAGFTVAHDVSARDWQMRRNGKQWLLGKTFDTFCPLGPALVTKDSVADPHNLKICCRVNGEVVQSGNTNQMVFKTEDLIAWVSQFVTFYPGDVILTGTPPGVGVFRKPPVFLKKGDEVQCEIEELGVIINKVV
UniProt Q16134: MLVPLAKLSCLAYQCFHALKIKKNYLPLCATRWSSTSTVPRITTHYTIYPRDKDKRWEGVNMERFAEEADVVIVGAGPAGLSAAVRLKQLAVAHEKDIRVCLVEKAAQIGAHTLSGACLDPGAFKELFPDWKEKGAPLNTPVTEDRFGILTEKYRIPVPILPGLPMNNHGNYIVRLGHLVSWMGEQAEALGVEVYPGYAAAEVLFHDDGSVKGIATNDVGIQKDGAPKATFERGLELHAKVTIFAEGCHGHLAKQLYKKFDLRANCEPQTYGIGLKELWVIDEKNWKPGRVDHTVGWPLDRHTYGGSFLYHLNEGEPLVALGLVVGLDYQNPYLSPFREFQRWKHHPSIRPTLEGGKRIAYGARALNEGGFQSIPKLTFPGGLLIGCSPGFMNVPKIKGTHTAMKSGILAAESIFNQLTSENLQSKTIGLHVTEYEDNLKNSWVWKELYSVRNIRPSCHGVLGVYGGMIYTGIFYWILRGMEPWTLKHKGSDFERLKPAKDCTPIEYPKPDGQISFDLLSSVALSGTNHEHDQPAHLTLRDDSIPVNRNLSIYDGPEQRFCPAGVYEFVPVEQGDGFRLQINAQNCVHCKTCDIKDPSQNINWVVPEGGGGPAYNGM

Tests used:
Assay in all cases: log2 fold change, soluble protein after heating vs DMSO (PISA); higher = thermal stabilisation; K562 cells, 10 uM, 30 min; active = over 0.2 and 3.5 SD of the protein, either way, in both replicates (recomputed)
[1] = compound: CS(=O)(=O)c1ccc(-c2cnc(N)c(C(=O)Nc3ccccc3)n2)cc1
Procedure, shortened: (§1)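 Quantification of soluble protein used TMTpro 16plex LC-MS/MS, with channel sums equalised. Samples were the supernatant after 21,000xg for 90 min of pooled aliquots from K562 cells (2×10^6 cells/mL) treated with 10 μM compound for 30 min, heated for 3 min over 48°C-58°C, and extracted in PBS with 0.5% NP-40 at 4°C. Values, from duplicates, describe thermal stability against control samples on a log2 fold-change scale.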

[2] = compound: C[C@@H](Oc1cc(-c2cnn(C3CCNCC3)c2)cnc1N)c1c(Cl)ccc(F)c1Cl [crizotinib]
Procedure, shortened: as §1

[3] = compound: C[C@@H]1COCCN1C2=NC(=NC(=C2)C3(CC3)S(=O)(=O)C)C4=C5C=CNC5=CC=C4
Procedure, shortened: as §1

[4] = compound: C[C@H](C1=CC=C(C=C1)C(=O)NC2=C3C=CNC3=NC=C2)N
Procedure, shortened: as §1

[5] = compound: C[C@H](Nc1ncnc2nc[nH]c12)c1cc2cccc(Cl)c2c(=O)n1-c1ccccc1 [duvelisib]
Procedure, shortened: as §1

[6] = compound: Cc1cc(Nc2cc(CN3CCOCC3)c3nc(C)c(Cc4ccc(Cl)cc4F)n3n2)n[nH]1 [gandotinib]
Procedure, shortened: as §1

[7] = compound: Cc1cc(Nc2cc(N3CCN(C)CC3)nc(Sc3ccc(NC(=O)C4CC4)cc3)n2)n[nH]1 [tozasertib]
Procedure, shortened: as §1

[8] = compound: Cc1cc(SCc2sc(-c3ccc(C(F)(F)F)cc3)nc2C)ccc1OCC(=O)O
Procedure, shortened: as §1

[9] = compound: Cc1ccc(-n2nc(C(C)(C)C)cc2NC(=O)Nc2ccc(OCCN3CCOCC3)c3ccccc23)cc1 [doramapimod]
Procedure, shortened: as §1

[10] = compound: Cc1ccc(C(=O)N(CCCN)[C@@H](c2nc3cc(Cl)ccc3c(=O)n2Cc2ccccc2)C(C)C)cc1 [ispinesib]
Procedure, shortened: as §1

[11] = compound: Cc1ccc(NC(=O)c2ccc(CN3CC[C@H](N(C)C)C3)c(C(F)(F)F)c2)cc1Nc1nccc(-c2cncnc2)n1 [bafetinib]
Procedure, shortened: as §1

[12] = compound: Cc1cccc(CC(=O)N2CCc3c2ccc(-c2cn(C)c4ncnc(N)c24)c3F)n1
Procedure, shortened: as §1

[13] = compound: Cc1cn(-c2cc(NC(=O)c3ccc(C)c(Nc4nccc(-c5cccnc5)n4)c3)cc(C(F)(F)F)c2)cn1 [nilotinib]
Procedure, shortened: as §1

[14] = compound: Cc1nc(Nc2n[nH]c3c2CN(C(=O)N[C@H](CN(C)C)c2ccccc2)C3(C)C)c2sccc2n1
Procedure, shortened: as §1

[15] = compound: Cc1nc(Nc2ncc(C(=O)Nc3c(C)cccc3Cl)s2)cc(N2CCN(CCO)CC2)n1 [dasatinib]
Procedure, shortened: as §1

[16] = compound: Cc1ncc(-c2ccnc(Nc3ccc(S(C)(=O)=O)cc3)n2)n1C(C)C
Procedure, shortened: as §1

[17] = compound: Cn1cc(-c2ccc3c(c2)CCN3C(=O)Cc2cccc(C(F)(F)F)c2)c2c(N)ncnc21
Procedure, shortened: as §1

[18] = compound: Cn1cc(-c2ccc3nnc(C(F)(F)c4ccc5ncccc5c4)n3n2)cn1
Procedure, shortened: as §1

[19] = compound: Cn1cncc1[C@@](N)(c1ccc(Cl)cc1)c1ccc2c(c1)c(-c1cccc(Cl)c1)cc(=O)n2C [tipifarnib]
Procedure, shortened: as §1

[20] = compound: FC(F)(F)c1ccc(/C=C/c2nc(COc3ccc(CCCCn4ccnn4)cc3)co2)cc1 [mubritinib]
Procedure, shortened: as §1

Measured: log2 fold change

ETF1 (UniProt P62495)
inactive: [1] 0.03 | [2] -0.052 | [3] -0.002 | [4] -0.013 | [5] 0.014 | [6] -0.058 | [7] -0.039 | [8] 0.008 | [9] 0 | [10] -0.001 | [11] -0.057 | [12] 0.027 | [13] -0.074 | [14] 0.005 | [15] -0.057 | [16] -0.012 | [17] 0.05 | [18] 0.011 | [19] -0.022 | [20] 0.007

ERAP1 isoform 2 (UniProt Q9NZ08)
inactive: [1] 0.023 | [2] 0.015 | [3] -0.028 | [4] 0.071 | [5] -0.027 | [6] 0.083 | [7] 0.039 | [8] 0.028 | [9] 0.011 | [10] -0.016 | [11] 0.024 | [12] 0.058 | [13] 0.008 | [14] 0.049 | [15] 0.008 | [16] -0.032 | [17] -0.081 | [18] -0.021 | [19] 0.036 | [20] -0.072

FAM192A (UniProt Q9GZU8)
inactive: [1] 0.004 | [2] 0.04 | [3] 0.074 | [4] -0.027 | [5] 0.023 | [6] 0.024 | [7] -0.045 | [8] -0.059 | [9] -0.037 | [10] 0.013 | [11] -0.043 | [12] -0.08 | [13] -0.009 | [14] 0.021 | [15] 0.054 | [16] -0.02 | [17] 0.009 | [18] 0.015 | [19] -0.016 | [20] 0.036

ERMP1 (UniProt Q7Z2K6)
inactive: [1] 0.023 | [2] 0.041 | [3] 0.037 | [4] -0.054 | [5] 0.038 | [6] 0.01 | [7] 0.023 | [8] -0.025 | [9] 0.012 | [10] -0.07 | [11] -0.032 | [12] -0.066 | [13] 0.053 | [14] 0.016 | [15] 0.047 | [16] -0.012 | [17] 0.021 | [18] 0.03 | [19] 0.04 | [20] 0.022

EXOSC8 (UniProt Q96B26)
inactive: [1] 0.033 | [2] 0.059 | [3] -0.065 | [4] -0.046 | [5] 0.027 | [6] -0.038 | [7] -0.01 | [8] -0.04 | [9] -0.007 | [10] 0.036 | [11] -0.035 | [12] -0.105 | [13] 0.002 | [14] 0 | [15] 0.052 | [16] -0.016 | [17] -0.039 | [18] -0.008 | [19] 0.002 | [20] -0.006

EPCAM (UniProt P16422)
inactive: [1] 0.067 | [2] 0.004 | [3] 0.046 | [4] -0.074 | [5] 0.049 | [6] -0.01 | [7] 0.013 | [8] -0.005 | [9] 0.016 | [10] 0.024 | [11] -0.035 | [12] -0.015 | [13] 0.042 | [14] 0.004 | [15] 0.058 | [16] 0.025 | [17] 0.085 | [18] -0.066 | [19] 0.005 | [20] 0.025

EPN2 (UniProt O95208)
inactive: [1] -0.023 | [2] -0.002 | [3] -0.043 | [4] 0.063 | [5] -0.021 | [6] 0.032 | [7] -0.061 | [8] -0.045 | [9] 0.056 | [10] -0.027 | [11] -0.074 | [12] -0.093 | [13] 0.012 | [14] -0.03 | [15] -0.034 | [16] -0.012 | [17] -0.033 | [18] 0.051 | [19] 0.004 | [20] 0.03

EPB41L2 (UniProt O43491)
inactive: [1] 0.027 | [2] 0.028 | [3] 0.094 | [4] -0.113 | [5] 0.011 | [6] -0.043 | [7] -0.056 | [8] -0.051 | [9] -0.011 | [10] 0.011 | [11] -0.021 | [12] 0.002 | [13] 0.055 | [14] -0.067 | [15] 0.003 | [16] -0.063 | [17] 0.06 | [18] -0.009 | [19] 0.032 | [20] 0.026

EPPK1 (UniProt P58107)
inactive: [1] 0.117 | [2] -0.104 | [3] -0.316 | [4] 0.619 | [5] -0.133 | [6] 0.112 | [7] -0.013 | [8] 0.045 | [9] 0.257 | [10] -0.456 | [11] 0.065 | [12] 0.061 | [13] 0.018 | [14] -0.177 | [15] -0.07 | [16] -0.078 | [17] -0.36 | [18] -0.332 | [19] 0.571 | [20] -0.132

ERO1A (UniProt Q96HE7)
inactive: [1] 0.004 | [2] -0.007 | [3] -0.031 | [4] 0.039 | [5] -0.015 | [6] -0.009 | [7] 0.023 | [8] -0.004 | [9] -0.023 | [10] 0.032 | [11] -0.023 | [12] -0.059 | [13] -0.007 | [14] 0.001 | [15] 0.027 | [16] -0.054 | [17] -0.044 | [18] 0.011 | [19] 0.038 | [20] -0.06

ERMAP (UniProt Q96PL5)
inactive: [1] 0.04 | [2] 0.01 | [3] -0.096 | [4] 0.075 | [5] -0.072 | [6] 0.038 | [7] 0.032 | [8] -0.004 | [9] -0.015 | [10] -0.039 | [11] 0.005 | [12] -0.014 | [13] 0.08 | [14] -0.044 | [15] -0.161 | [16] -0.028 | [17] -0.018 | [18] 0.058 | [19] 0.094 | [20] 0.002

EXO5 (UniProt Q9H790)
inactive: [1] -0.002

FAM162A (UniProt Q96A26)
inactive: [1] -0.037 | [2] 0.054 | [3] 0.189 | [4] -0.015 | [5] 0.019 | [6] 0.015 | [7] 0.026 | [8] 0.013 | [9] -0.019 | [10] 0.034 | [11] -0.004 | [12] -0.096 | [13] 0.006 | [14] 0.015 | [15] -0.03 | [16] -0.029 | [17] 0.035 | [18] -0.006 | [19] -0.028 | [20] -0.024

FAHD2A (UniProt Q96GK7)
inactive: [1] 0.015 | [2] 0.095 | [3] -0.032 | [4] -0.049 | [5] -0.006 | [6] 0.07 | [7] -0.002 | [8] -0.01 | [9] -0.061 | [10] 0.102 | [11] -0.07 | [12] -0.02 | [13] 0.069 | [14] 0.078 | [15] 0.025 | [16] 0.006 | [17] 0.046 | [18] 0.032 | [19] -0.003 | [20] 0.018

ERP29 (UniProt P30040)
inactive: [1] 0.018 | [2] 0.039 | [3] -0.041 | [4] 0.006 | [5] -0.008 | [6] 0.079 | [7] 0.006 | [8] 0.01 | [9] -0.003 | [10] 0.031 | [11] -0.038 | [12] -0.014 | [13] 0.037 | [14] 0.018 | [15] 0.013 | [16] -0.022 | [17] -0.002 | [18] 0.004 | [19] 0.049 | [20] -0.031

Random excerpt: 2 records from the list, in no set order.
ERP29 (UniProt P30040)
inactive: [1] 0.018 | [2] 0.039 | [3] -0.041 | [4] 0.006 | [5] -0.008 | [6] 0.079 | [7] 0.006 | [8] 0.01 | [9] -0.003 | [10] 0.031 | [11] -0.038 | [12] -0.014 | [13] 0.037 | [14] 0.018 | [15] 0.013 | [16] -0.022 | [17] -0.002 | [18] 0.004 | [19] 0.049 | [20] -0.031

EXO5 (UniProt Q9H790)
inactive: [1] -0.002

(list continues)

ETFDH (UniProt Q16134)
inactive: [1] -0.007 | [2] -0.008 | [3] 0.077 | [4] -0.035 | [5] 0.017 | [6] 0 | [7] 0.017 | [8] -0.044 | [9] -0.027 | [10] -0.018 | [11] -0.037 | [12] 0.03 | [13] -0.012 | [14] 0.008 | [15] -0.032 | [16] -0.001 | [17] 0.022 | [18] 0.025 | [19] -0.001 | [20] 0.122

FAH (UniProt P16930)
inactive: [1] 0.028 | [2] 0.046 | [3] 0.057 | [4] -0.135 | [5] 0.04 | [6] -0.019 | [7] -0.02 | [8] -0.033 | [9] -0.036 | [10] 0.021 | [11] -0.024 | [12] 0.046 | [13] 0.008 | [14] -0.004 | [15] 0.008 | [16] -0.011 | [17] 0.045 | [18] 0.004 | [19] -0.017 | [20] 0.031
